Data from article PMC8257253.
No constants are given. Whether binding was seen depends on the method and setting. Binding seen in cells or lysates may run through a third protein. These calls come from enrichment with a bait or labelling near it, and not all partners need be listed.

Amino acid sequences for entries named in this document (tags omitted). A change or cut given only in a name is not applied to a line headed by its entry. Residues count along the entry.
UniProt Q02357: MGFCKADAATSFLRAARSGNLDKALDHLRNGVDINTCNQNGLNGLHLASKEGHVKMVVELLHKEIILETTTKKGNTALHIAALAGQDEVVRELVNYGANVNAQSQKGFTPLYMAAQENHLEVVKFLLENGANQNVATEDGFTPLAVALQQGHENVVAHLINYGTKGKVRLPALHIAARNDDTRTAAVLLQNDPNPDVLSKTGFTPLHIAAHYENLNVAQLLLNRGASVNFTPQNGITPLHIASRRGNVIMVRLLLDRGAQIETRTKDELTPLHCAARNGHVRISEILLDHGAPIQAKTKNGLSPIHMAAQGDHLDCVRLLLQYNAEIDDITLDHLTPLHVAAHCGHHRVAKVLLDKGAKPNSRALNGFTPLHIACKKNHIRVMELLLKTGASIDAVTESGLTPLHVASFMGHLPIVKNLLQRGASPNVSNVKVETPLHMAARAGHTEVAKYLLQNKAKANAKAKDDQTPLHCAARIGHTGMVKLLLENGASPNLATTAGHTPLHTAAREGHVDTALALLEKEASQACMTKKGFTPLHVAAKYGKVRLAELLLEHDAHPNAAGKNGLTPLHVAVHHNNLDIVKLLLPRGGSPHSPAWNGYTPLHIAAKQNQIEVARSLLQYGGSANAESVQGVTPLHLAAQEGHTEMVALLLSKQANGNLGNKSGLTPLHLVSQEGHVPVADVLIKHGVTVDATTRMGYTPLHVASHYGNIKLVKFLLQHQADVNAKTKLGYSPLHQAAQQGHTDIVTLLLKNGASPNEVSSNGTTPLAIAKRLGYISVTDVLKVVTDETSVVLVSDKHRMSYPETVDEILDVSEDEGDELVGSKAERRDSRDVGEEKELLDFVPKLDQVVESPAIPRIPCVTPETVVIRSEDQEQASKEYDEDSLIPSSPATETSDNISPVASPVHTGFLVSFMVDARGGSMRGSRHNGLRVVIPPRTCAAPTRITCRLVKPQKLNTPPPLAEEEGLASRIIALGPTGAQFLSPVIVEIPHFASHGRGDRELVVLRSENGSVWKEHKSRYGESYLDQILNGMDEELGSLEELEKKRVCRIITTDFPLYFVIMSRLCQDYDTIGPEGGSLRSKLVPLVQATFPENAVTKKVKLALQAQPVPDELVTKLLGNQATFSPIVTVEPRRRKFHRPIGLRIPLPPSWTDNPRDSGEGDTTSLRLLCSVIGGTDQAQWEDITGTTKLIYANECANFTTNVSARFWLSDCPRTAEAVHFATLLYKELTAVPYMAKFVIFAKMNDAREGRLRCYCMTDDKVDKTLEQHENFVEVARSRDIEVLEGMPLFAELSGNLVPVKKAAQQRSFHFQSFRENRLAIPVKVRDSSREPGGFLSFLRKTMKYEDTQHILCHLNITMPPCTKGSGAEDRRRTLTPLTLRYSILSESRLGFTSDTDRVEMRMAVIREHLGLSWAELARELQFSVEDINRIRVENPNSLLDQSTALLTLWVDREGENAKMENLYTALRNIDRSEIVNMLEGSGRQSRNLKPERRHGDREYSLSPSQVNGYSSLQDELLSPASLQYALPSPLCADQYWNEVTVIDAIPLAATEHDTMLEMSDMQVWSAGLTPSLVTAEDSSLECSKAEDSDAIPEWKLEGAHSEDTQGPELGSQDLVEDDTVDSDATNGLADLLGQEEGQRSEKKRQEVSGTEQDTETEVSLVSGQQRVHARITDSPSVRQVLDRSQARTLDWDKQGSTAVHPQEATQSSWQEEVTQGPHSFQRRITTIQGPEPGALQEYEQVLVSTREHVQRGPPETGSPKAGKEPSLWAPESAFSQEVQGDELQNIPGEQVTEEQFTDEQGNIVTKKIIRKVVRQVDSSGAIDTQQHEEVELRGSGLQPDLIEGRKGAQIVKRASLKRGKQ
UniProt Q8BLK3: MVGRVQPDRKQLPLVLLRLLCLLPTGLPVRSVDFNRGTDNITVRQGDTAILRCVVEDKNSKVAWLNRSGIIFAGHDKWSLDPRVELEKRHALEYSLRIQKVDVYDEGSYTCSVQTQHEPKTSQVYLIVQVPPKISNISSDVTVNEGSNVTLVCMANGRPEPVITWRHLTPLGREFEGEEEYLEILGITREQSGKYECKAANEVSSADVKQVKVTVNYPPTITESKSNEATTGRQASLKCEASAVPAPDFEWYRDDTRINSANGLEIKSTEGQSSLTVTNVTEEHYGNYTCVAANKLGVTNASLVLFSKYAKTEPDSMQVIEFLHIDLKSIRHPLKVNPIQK
UniProt O08638: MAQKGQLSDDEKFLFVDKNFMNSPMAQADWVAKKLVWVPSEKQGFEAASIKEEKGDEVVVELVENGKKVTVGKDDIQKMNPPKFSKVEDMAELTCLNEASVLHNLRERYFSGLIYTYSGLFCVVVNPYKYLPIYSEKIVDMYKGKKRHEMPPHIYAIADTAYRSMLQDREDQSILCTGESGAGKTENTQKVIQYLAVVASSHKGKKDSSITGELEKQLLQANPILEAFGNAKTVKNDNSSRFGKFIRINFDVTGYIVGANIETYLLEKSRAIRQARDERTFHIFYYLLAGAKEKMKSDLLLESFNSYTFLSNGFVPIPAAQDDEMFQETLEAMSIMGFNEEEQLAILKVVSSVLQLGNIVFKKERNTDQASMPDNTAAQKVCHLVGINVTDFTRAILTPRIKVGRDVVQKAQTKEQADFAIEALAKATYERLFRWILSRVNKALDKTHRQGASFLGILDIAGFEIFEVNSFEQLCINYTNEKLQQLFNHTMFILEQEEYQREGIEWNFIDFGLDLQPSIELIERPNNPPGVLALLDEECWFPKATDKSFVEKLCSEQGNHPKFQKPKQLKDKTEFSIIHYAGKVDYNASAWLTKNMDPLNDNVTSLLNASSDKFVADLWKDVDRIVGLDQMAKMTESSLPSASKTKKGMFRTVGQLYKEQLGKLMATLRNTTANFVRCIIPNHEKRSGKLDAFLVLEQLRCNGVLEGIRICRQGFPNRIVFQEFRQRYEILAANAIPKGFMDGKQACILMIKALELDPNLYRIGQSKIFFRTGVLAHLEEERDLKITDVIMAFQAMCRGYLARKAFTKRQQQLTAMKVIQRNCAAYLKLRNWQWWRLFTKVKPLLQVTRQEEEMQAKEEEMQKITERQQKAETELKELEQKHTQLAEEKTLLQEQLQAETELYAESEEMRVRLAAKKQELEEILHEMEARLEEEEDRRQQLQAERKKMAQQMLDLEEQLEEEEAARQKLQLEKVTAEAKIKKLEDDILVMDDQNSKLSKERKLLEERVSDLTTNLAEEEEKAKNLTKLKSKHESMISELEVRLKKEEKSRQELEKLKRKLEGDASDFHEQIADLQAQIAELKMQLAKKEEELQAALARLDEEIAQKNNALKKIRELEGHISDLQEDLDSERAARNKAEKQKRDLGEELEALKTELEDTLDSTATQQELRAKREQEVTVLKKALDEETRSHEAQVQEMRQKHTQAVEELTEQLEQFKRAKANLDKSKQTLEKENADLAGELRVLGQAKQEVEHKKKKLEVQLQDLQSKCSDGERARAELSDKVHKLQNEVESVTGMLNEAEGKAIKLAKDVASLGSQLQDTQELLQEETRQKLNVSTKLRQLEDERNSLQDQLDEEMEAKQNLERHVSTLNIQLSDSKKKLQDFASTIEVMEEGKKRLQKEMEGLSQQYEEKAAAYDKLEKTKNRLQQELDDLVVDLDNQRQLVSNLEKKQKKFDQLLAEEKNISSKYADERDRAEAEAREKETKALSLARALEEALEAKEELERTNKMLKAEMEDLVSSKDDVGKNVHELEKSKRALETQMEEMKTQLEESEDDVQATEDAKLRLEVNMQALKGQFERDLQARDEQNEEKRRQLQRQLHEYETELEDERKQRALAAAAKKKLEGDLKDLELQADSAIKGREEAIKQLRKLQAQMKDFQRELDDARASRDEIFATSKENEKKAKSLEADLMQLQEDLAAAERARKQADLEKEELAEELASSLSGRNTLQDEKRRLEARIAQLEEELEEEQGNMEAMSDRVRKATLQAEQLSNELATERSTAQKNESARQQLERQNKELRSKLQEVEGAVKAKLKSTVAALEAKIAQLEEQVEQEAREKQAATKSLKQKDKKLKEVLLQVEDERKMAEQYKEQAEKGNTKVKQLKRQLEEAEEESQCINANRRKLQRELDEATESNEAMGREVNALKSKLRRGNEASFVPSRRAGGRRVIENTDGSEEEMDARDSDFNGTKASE
UniProt Q810U4, residues 30-1256: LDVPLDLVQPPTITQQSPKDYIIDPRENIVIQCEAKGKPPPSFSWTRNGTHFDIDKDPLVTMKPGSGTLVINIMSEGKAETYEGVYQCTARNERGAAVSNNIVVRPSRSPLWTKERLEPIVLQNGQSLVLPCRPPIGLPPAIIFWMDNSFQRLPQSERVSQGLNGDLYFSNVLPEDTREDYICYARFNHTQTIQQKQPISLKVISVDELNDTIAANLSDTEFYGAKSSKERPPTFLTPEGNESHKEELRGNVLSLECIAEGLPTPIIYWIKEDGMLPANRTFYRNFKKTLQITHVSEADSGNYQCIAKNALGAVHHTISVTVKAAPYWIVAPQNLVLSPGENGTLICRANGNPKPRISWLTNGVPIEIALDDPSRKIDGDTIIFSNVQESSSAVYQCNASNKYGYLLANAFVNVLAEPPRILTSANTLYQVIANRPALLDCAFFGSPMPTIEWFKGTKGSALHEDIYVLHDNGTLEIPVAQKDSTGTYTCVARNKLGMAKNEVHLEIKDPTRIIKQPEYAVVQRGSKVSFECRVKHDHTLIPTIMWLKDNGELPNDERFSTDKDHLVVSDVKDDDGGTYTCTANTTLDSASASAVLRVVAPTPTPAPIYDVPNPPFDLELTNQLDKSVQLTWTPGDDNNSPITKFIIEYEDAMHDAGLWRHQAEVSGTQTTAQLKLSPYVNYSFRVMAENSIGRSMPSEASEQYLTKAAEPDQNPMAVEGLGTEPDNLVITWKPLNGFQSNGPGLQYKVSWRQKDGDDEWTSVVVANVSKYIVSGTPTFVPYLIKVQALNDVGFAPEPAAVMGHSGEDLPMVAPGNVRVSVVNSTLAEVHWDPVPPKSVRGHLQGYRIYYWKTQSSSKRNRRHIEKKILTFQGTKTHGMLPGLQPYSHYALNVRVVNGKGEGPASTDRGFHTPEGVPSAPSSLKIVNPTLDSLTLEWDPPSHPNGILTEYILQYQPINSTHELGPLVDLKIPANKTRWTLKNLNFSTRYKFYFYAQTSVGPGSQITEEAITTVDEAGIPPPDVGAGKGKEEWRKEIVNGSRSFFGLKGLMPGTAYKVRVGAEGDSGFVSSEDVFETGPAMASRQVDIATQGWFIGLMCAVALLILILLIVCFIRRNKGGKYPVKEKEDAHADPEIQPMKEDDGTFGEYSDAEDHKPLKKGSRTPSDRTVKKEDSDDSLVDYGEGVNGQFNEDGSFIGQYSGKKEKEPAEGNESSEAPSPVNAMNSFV

B1: adhesion G-protein-coupled receptor Gpr158 (receptor, UniProt Q8C419 25-1200)
chain: SLDPPGRPDSPRERTPRGKQHGQQLPRASAPDPSIPWSRSTDGTILAQKLAEEVPVDVASYLYTGDFHQLKRANCSGRYELAGLPGKSPSLASSHPSLHGALDTLTHATNFLNMMLQSNKSREQTVQDDLQWYQALVRSLLEGEPSISRAAITFSTESLSTPAPQVFLQATREESRILLQDLSSSAHHLANATLETEWFHGLRRKWRPHLHRRGSNQGPRGLGHSWRRRDGLGGDRSHVKWSPPYLECENGSYKPGWLVTLSAAFYGLQPNLVPEFRGVMKVDISLQKVDIDQCSSDGWFSGTHKCHLNNSECMPIKGLGFVLGAYQCICKAGFYHPRVFSVNNFQRRGPDHHFSGSTKDVSEETHVCLPCREGCPFCADDRPCFVQEDKYLRLAIISFQALCMLLDFVSMLVVYHFRKAKSIRASGLILLETILFGSLLLYFPVVILYFEPSTFRCILLRWARLLGFATVYGTVTLKLHRVLKVFLSRTAQRIPYMTGGRVMRMLAVIVLVVFWFLVGWTSSMCQNLERDILLVGQGQTSDHLTFNMCLIDRWDYMTAVAEFLFLLWGIYLCYAVRTVPSAFHEPRYMAVAVHNELIITAIFHTIRFVLASRLQPDWMLMLYFAHAHLTVTVTIGLLLIPKFSHSSNNPRDDIATEAYEDELDMGRSGSYLNSSINSAWSEHSLDPEDIRDELKKLYAQLEIYKRKKMITNNPHLQKKRCSKKGLGRSIMRRITEIPETVSRQCSKEDKEGTDHSAAKGTGLVRKNPTESSGNTGRPKEESLKNRVFSLKKSHSTYDHVRDQTVESSSLPMESQEEEATENSTLESLSSKKLTQKLKEDSEAESTESVPLVCKSASAHNLSSEKKPGHPRTSMLQKSLSVIASAKEKTLGLAGKTQTLVMEDRAKSQKPKDRETIRKYSNSDNVETIPNSGHMEEPRKPQKSGIMKQQRVSLPTANPDVSSGITQIKDNFDIGEVCPWEVYDLTPGPMPSEPKAQKHVSIAASEVEQNPASFLKEKSYHKSKATEGLYQANHKSIDKTEVCPWEIHSQSLLEDENRLISKTPVLPGRAREENGSQLYTTNMCAGQYEELPHKVVAPKVENENLNQMGDQEKQTSSSVDIIPGSCNSSNNSHQPLTSRAEVCPWEFEPLEQPNAERSVTLPASSALSANKIPGPQK

Target: Ankyrin-R (mouse (endogenous in mouse brain)) (UniProt Q02357)
Test: affinity purification with mass spectrometry; AnkR immunoprecipitations in biological triplicate from whole Ank1 F/F mouse brain lysates; candidates filtered by ≥10 mean PSMs and by reduction in AnkR-KO hindbrain homogenates (differential proteomics)

binding | Molecule
binds | Itsn1 (from UniProt Q9Z0R4 1-1714)
binds | Kif1a (from UniProt P33173 1-1695)
binds | Limbic System Associated Membrane Protein (from UniProt Q8BLK3)
binds | Myh11 (from UniProt O08638 1-1972)
binds | NrCAM (from UniProt Q810U4 30-1256)
binds | PlexinA4 (from UniProt Q80UG2 24-1893) (receptor)

Target: Ankyrin-R (mouse (endogenous in mouse brain)) (UniProt Q02357)
Test: as above
Remark: another data set of the same source

binding | Molecule
binds | B1
